For nine compounds, T/C and survivor count results are on record in PubChem BioAssay AID328 (DTP/NCI, 2004).

This assay relates to BDF1 mice, P388 leukemia ip, median survival T/C. In words: NCI In Vivo Anticancer Drug Screen. Data for tumor model P388 Leukemia (intraperitoneal) in B6D2F1 (BDF1) mice. Conditions: T/C endpoint: median survival time, higher T/C = longer survival. How it is done: The antitumor activity of compounds was measured in mice bearing transplantable tumors. Survival or tumor size were measured and the results are expressed as the measurement made in the treated group (T) divided by the measurement made in the vehicle treated control group (C). The tumor model used in this assay is P388 Leukemia (intraperitoneal) in B6D2F1 (BDF1) mice

Where [1] appears, read: dose: 100.0 mg/kg/injection, schedule: Q01DX009 (ip), vehicle: saline with Tween-80.
Where [2] appears, read: dose: 25.0 mg/kg/injection, schedule: Q01DX009 (ip), vehicle: Klucel (hydroxypropylcellulose) (HPC).
The mark [3] stands for this setting: dose: 50.0 mg/kg/injection, schedule: Q01DX009 (ip), vehicle: Klucel (hydroxypropylcellulose) (HPC).

The list does not hold the whole screen: it is rich in T/C values a quarter to a half above the control, in often repeated tests (any T/C) and in doses without a T/C. Other doses and runs of a compound stand elsewhere. T/C is the treated group as % of the vehicle group. Some doses have a count of surviving animals in place of a T/C: the source holds a T/C of zero for them, seemingly a mark for toxic or unscored doses. Some doses without a T/C left all or most animals alive at the check, yet need not have been tolerated: survival well below the control is almost never listed, so the zero probably covers shortened survival too. Survivors were counted at the toxicity check, usually on the fifth day, unless a day is given; later deaths do not show. Schedules are NCI's codes, taken here to give the interval after Q, in days (D) or hours (H), and the number of doses after X. Some doses were run more than once; the values are given in rising order. Where survival is the endpoint, this PubChem deposit counts one and a half times the control or more as active, and values a quarter to a half above the control carry no call in these data; other NCI protocols may use other cut-offs.

`CCN(CC)CC(=O)c1ccc(O)c(O)c1`: the T/C is, setting by setting: under setting [1], 131 % of control; (dose: 200.0 mg/kg/injection, schedule: Q01DX009 (ip), vehicle: saline with Tween-80) 142 % of control; (dose: 400.0 mg/kg/injection, schedule: Q01DX009 (ip), vehicle: saline with Tween-80) 144 % of control.

Consider `Cc1ccnc(NS(=O)(=O)c2ccc(N=Nc3nc4[nH]c(N)nc(=S)c4[nH]3)cc2)n1`, for which the survivor count by setting is: (dose: 12.5 mg/kg/injection, schedule: Q01DX009 (ip), vehicle: Klucel (hydroxypropylcellulose) (HPC)) 6 of 6; under setting [2], 6 of 6; under setting [3], 5 of 6.

Consider `O=NN(CCCl)C(=O)Nc1cc(NC(=O)N(CCCl)N=O)cc(C(=O)O)c1`, for which the T/C is, setting by setting: (dose: 0.12 mg/kg/injection, schedule: Q04DX003 (ip), vehicle: saline with Tween-80) 133 and 145 % of control; (dose: 0.18 mg/kg/injection, schedule: Q04DX003 (ip), vehicle: saline with Tween-80) 136 % of control; (dose: 0.25 mg/kg/injection, schedule: Q04DX003 (ip), vehicle: saline with Tween-80) 145 % of control; (dose: 0.5 mg/kg/injection, schedule: Q04DX003 (ip), vehicle: saline with Tween-80) 145 % of control; (dose: 13.0 mg/kg/injection, schedule: Q04DX003 (ip), vehicle: saline with Tween-80) 131 % of control; (dose: 30.0 mg/kg/injection, schedule: Q04DX003 (ip), vehicle: saline with Tween-80) 140 % of control. Also, where the note is “dose: 60.0 mg/kg/injection, schedule: Q04DX003 (ip), vehicle: saline with Tween-80”, the survivor count is recorded as 6 of 6.

Regarding `O=C1C(NC(=O)C2CCCCC2)=C(N2CC2)C(=O)C(NC(=O)C2CCCCC2)=C1N1CC1`, the T/C reads like this: under setting [2], 125 % of control; (dose: 25.0 mg/kg/injection, schedule: Q01DX010 (ip), vehicle: saline) 136 % of control; under setting [3], 129 and 146 % of control; (dose: 50.0 mg/kg/injection, schedule: Q01DX010 (ip), vehicle: saline) 140 % of control; (dose: 100.0 mg/kg/injection, schedule: Q01DX009 (ip), vehicle: Klucel (hydroxypropylcellulose) (HPC)) 144 % of control.

For `O=C1C(N2CC2)=C(N2CC2)C(=O)C(N2CC2)=C1N1CC1`, the T/C reads like this: (dose: 0.04 mg/kg/injection, schedule: Q01DX009 (ip), vehicle: saline) 145 % of control; (dose: 0.1 mg/kg/injection, schedule: Q04DX003 (ip), vehicle: saline with Tween-80) 133 % of control; (dose: 0.13 mg/kg/injection, schedule: Q04DX003 (ip), vehicle: saline with Tween-80) 131 % of control; (dose: 0.17 mg/kg/injection, schedule: Q04DX003 (ip), vehicle: other) 127 % of control; (dose: 4.4 micrograms/kg/injection, schedule: Q01DX009 (ip), vehicle: saline with Tween-80) 133 % of control; (dose: 13.3 micrograms/kg/injection, schedule: Q01DX009 (ip), vehicle: saline with Tween-80) 141 % of control. Besides, the T/C (dose: 15.0 micrograms/kg/injection, schedule: Q01DX009 (ip), vehicle: saline with Tween-80) is 138 % of control. For the same compound, the survivor count is, setting by setting: (dose: 0.08 mg/kg/injection, schedule: Q01DX009 (ip), vehicle: saline) 6 of 6; (dose: 0.16 mg/kg/injection, schedule: Q01DX009 (ip), vehicle: saline) 5 of 6 and 6 of 6; (dose: 0.38 mg/kg/injection, schedule: Q04DX003 (ip), vehicle: other) 6 of 6; (dose: 6.25 mg/kg/injection, schedule: Q04DX003 (ip), vehicle: saline with Tween-80) 0 of 6; (dose: 12.5 mg/kg/injection, schedule: Q04DX003 (ip), vehicle: saline with Tween-80) 0 of 6; (dose: 25.0 mg/kg/injection, schedule: Q04DX003 (ip), vehicle: saline with Tween-80) 0 of 6. The survivor count was 0 of 6 (dose: 100.0 mg/kg/injection, schedule: Q04DX003 (ip), vehicle: saline with Tween-80); 0 of 6 (dose: 200.0 mg/kg/injection, schedule: Q04DX003 (ip), vehicle: saline with Tween-80); 0 of 6 (dose: 400.0 mg/kg/injection, schedule: Q04DX003 (ip), vehicle: saline with Tween-80); 6 of 6 (dose: 250.0 micrograms/kg/injection, schedule: Q01DX009 (ip), vehicle: saline with Tween-80).

For `O=C(O)CCSc1ccccc1`, the survivor count reads like this: (dose: 100.0 mg/kg/injection, schedule: Q01DX001 (ip), vehicle: saline with Tween-80) 3 of 6; (dose: 200.0 mg/kg/injection, schedule: Q01DX001 (ip), vehicle: saline with Tween-80) 0 of 6; (dose: 400.0 mg/kg/injection, schedule: Q01DX001 (ip), vehicle: saline with Tween-80) 0 of 6.

In the case of `Cc1ccc(C2(C(=O)O)CCCCC2)cc1`, the survivor count (dose: 400.0 mg/kg/injection, schedule: Q01DX009 (ip), vehicle: Klucel (hydroxypropylcellulose) (HPC)) was 5 of 6.

`O=C(O)COc1ccc(Cl)cc1Cl`: the survivor count under setting [1] is listed as 4 of 6.

Turning to `CC(C)n1cc2c(N)ncnc2n1`, the survivor count reads like this: (dose: 200.0 mg/kg/injection, schedule: Q01DX009 (ip), vehicle: saline) 5 of 6; (dose: 400.0 mg/kg/injection, schedule: Q04DX003 (ip), vehicle: saline) 3 of 6.
